Data as given in PubChem BioAssay AID686943 (Drosophila RNAi Screening Center, 2013).
Purpose: 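Search across the genome for regulators of signalling from receptor tyrosine kinase to ERK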 (primary screen). System: Drosophila S2R+ haemocyte-like cells expressing YFP-tagged ERK (Rolled). Reagents: long dsRNA against Drosophila genes. Treatment: insulin stimulation versus unstimulated cells; dose and duration not given. Measured: 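Antibody staining for doubly phosphorylated ERK divided by ERK-YFP signal, as plate z-scores, in insulin-treated and untreated cells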. Reading the numbers: replicate 1, z-score of dpERK with insulin and replicate 2, z-score of dpERK with insulin: higher = more active ERK per ERK-YFP after insulin; replicate 1, z-score of dpERK under basal conditions: higher = more basal active ERK per ERK-YFP.
In all, the deposit lists about 23,000 reagents; this is an unselected part of those with a known target gene and a result. 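Extra replicates exist only for a retested subset of genes; insulin dose and duration not given; both raised and lowered dpERK matter.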 Names joined by + are all predicted targets of the reagent. Not all columns of the deposit are shown. The record does not give: the amount of reagent, the time to read-out.

| target gene | dsRNA | replicate 1, z-score of dpERK with insulin | replicate 2, z-score of dpERK with insulin | replicate 1, z-score of dpERK under basal conditions |
| --- | --- | --- | --- | --- |
| Grx1 | DRSC10727 | 0.09 | -0.45 | -0.9 |
| Pa1 | DRSC19422 | 0.2 | 0.15 | 0.03 |
| CG42650 | DRSC12462 | -0.51 | 0.75 | 1.09 |
| Cad88C | DRSC15486 | 0.26 | 0.69 | 0.18 |
| CG44836 | DRSC09915 | -0.18 | 0.35 | 0.18 |
| CG14439 | DRSC17931 | 0.28 | 0.01 | 0.28 |
| Hsp70Aa + Hsp70Ab | DRSC21246 | -2.28 | -2.26 | -0.33 |
| CG33140 | DRSC06030 | 0.2 | 0.16 | 0.48 |
| CG31050 | DRSC13883 | 0.33 | 0.48 | 0.2 |
| CDK2AP1 | DRSC19800 | -0.42 | 0.5 | 0.4 |
| RpL7-like | DRSC02836 | 1.23 | -1.54 | -0.49 |
| Myb | DRSC20260 | -1.74 | -0.93 | 3.27 |
| nab | DRSC08455 | 0.25 | -0.02 | -0.33 |
| nab | DRSC08456 | -0.04 | -0.51 | 2.05 |
| CG12321 | DRSC14499 | -0.88 | -1.11 | -0.87 |
| CG33998 | DRSC05747 | -0.07 | -0.14 | 0.24 |
| CG34375 | DRSC14684 | 0.67 | 1.07 | -0.07 |
| CG34375 | DRSC14685 | -0.01 | 0 | 0.37 |
| mod | DRSC16999 | -0.07 | 0.01 | -0.24 |
| CG9215 | DRSC20171 | -1.83 | -2.69 | -0.02 |
| GPHR | DRSC07075 | -0.34 | 0.81 | -0.72 |
| spz4 | DRSC02410 | 1.5 | 1.52 | 0.5 |
| unc-4 | DRSC20381 | 1.24 | -0.83 | 0.02 |
| unc-4 | DRSC22074 | 0.04 | -0.33 | 0.13 |
| lncRNA:CR43302 | DRSC12668 | -4.26 | -3.53 | -0.12 |
| CG13067 | DRSC09950 | -0.52 | -0.49 | 0.02 |
| TwdlU | DRSC12224 | 0.09 | 0.62 | -0.77 |
| CG11889 + CG11891 | DRSC14426 | 0.2 | -0.07 | 1.53 |
| CG11889 + CG11891 | DRSC14427 | 0.19 | 0.26 | 0.53 |
| CG1631 | DRSC20535 | 0.61 | 0.68 | 0.94 |
| Arf6 | DRSC05921 | -1.49 | -1.38 | 0.48 |
| E(spl)m3-HLH | DRSC16694 | -0.78 | -3.23 | -2.64 |
| CG14050 | DRSC18594 | 0.3 | 0.76 | 0.63 |
| Tango14 | DRSC00667 | 0.48 | 1.39 | -0.45 |
| Ent1 | DRSC00330 | -0.41 | -0.22 | -0.01 |
| CG4438 | DRSC02746 | -0.12 | 0.77 | 0.86 |
| CG44085 | DRSC02922 | -5.91 | -3.89 | -2.33 |
| CG44085 | DRSC02929 | 0.05 | 0.55 | -0.32 |
| DnaJ-1 | DRSC11145 | -2.08 | -0.49 | 1.47 |

Limited to “replicate 2, z-score of dpERK with insulin”, for 4 of the entries above:
nab [DRSC08456] = -0.51
CG12321 [DRSC14499] = -1.11
CG33998 [DRSC05747] = -0.14
CG34375 [DRSC14684] = 1.07
